The list shows a part of the results. Repeats are few or missing, and single values can be far off.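 The apoptosis fraction was the count of cleaved-PARP antibody-stained nuclei relative to all DNA-stained nuclei, imaged in 1,536-well plates. Screening doses were set so most cells survived, and baseline and induced cleaved-PARP levels vary greatly across cell lines.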
test system: COLO800; assay: cleaved PARP positive nuclei fraction relative to DMSO control; melanoma cells; higher = more apoptosis; conditions: library dose: low library concentration; 72 h

Compound	cleaved PARP positive nuclei fraction [%]
OCCn1cc(-c2cnc3nnn(Cc4ccc5ncccc5c4)c3n2)cn1 + C/C(O)=C(\C#N)C(=O)Nc1cc(Br)ccc1Br [LFM-A13] (first compound 1 µM, partner dose 2 µM)	87.1
C[As](C)SC[C@H](NC(=O)CC[C@H](N)C(=O)O)C(=O)NCC(=O)O [Darinaparsin] + O=C1NC(=O)/C(=C/c2ccc(-c3ccc(F)cc3O)o2)S1 [AS252424] (first compound 0.4 µM, partner dose 1 µM)	28.5
Nc1cccc2c1CN(C1CCC(=O)NC1=O)C2=O (configuration not stated) [lenalidomide] + Cc1cc(SCc2sc(-c3ccc(C(F)(F)F)c(F)c3)nc2C)ccc1OCC(=O)O [GW0742] (first compound 1 µM, partner dose 2 µM)	152
C/C(O)=C(\C#N)C(=O)Nc1cc(Br)ccc1Br + CCCCCCCCCCCC1=C(O)C(=O)C=C(O)C1=O [Embelin] (first compound 2 µM, partner dose 1.2 µM)	98.6
Cc1cc(SCc2sc(-c3ccc(C(F)(F)F)c(F)c3)nc2C)ccc1OCC(=O)O + Cn1cc(/C=C2\C(=O)Nc3cccnc32)c2ccccc21 [GW441756] (first compound 2 µM, partner dose 0.4 µM)	225
C[As](C)SC[C@H](NC(=O)CC[C@H](N)C(=O)O)C(=O)NCC(=O)O [Darinaparsin] + Cc1cc([N+](=O)[O-])ccc1NS(=O)(=O)c1cc(Cl)ccc1Cl [FH535] (first compound 0.4 µM, partner dose 1 µM)	173
C=CCn1c(=O)c2cnc(Nc3ccc(N4CCN(C)CC4)cc3)nc2n1-c1cccc(C(C)(C)O)n1 + O=C(Oc1ccc([N+](=O)[O-])cc1)N1CCC(C(O)(c2ccc3c(c2)OCO3)c2ccc3c(c2)OCO3)CC1 [JZL184] (first compound 0.02 µM, partner dose 1 µM)	166
C/C(O)=C(\C#N)C(=O)Nc1cc(Br)ccc1Br + c1cc(-c2cnn3cc(-c4ccc(OCCN5CCCCC5)cc4)cnc23)ccn1 [Dorsomorphin] (first compound 2 µM, partner dose 0.4 µM)	85.9
C/C(O)=C(\C#N)C(=O)Nc1cc(Br)ccc1Br + O=C(Oc1ccc([N+](=O)[O-])cc1)N1CCC(C(O)(c2ccc3c(c2)OCO3)c2ccc3c(c2)OCO3)CC1 [JZL184] (first compound 2 µM, partner dose 1 µM)	99.9
Cc1cc(SCc2sc(-c3ccc(C(F)(F)F)c(F)c3)nc2C)ccc1OCC(=O)O + O=C1NC(=O)/C(=C/c2ccc(-c3ccc(F)cc3O)o2)S1 [AS252424] (first compound 2 µM, partner dose 1 µM)	145
CCc1ccc(CCOc2ccc(CC3SC(=O)NC3=O)cc2)nc1 (configuration not stated) [pioglitazone] + Cc1cc(SCc2sc(-c3ccc(C(F)(F)F)c(F)c3)nc2C)ccc1OCC(=O)O [GW0742] (first compound 2 µM, partner dose 2 µM)	187
COc1ccc2c(c1)CCC1C2CCC2(C)C(NCCCCCCN3C(=O)C=CC3=O)CCC12 (configuration not stated) + O=C(Oc1ccc([N+](=O)[O-])cc1)N1CCC(C(O)(c2ccc3c(c2)OCO3)c2ccc3c(c2)OCO3)CC1 [JZL184] (first compound 0.4 µM, partner dose 1 µM)	116
Cc1cc(SCc2sc(-c3ccc(C(F)(F)F)c(F)c3)nc2C)ccc1OCC(=O)O + O=C(Oc1ccc([N+](=O)[O-])cc1)N1CCC(C(O)(c2ccc3c(c2)OCO3)c2ccc3c(c2)OCO3)CC1 [JZL184] (first compound 2 µM, partner dose 1 µM)	114
C/C(O)=C(\C#N)C(=O)Nc1cc(Br)ccc1Br + Cc1cc([N+](=O)[O-])ccc1NS(=O)(=O)c1cc(Cl)ccc1Cl [FH535] (first compound 2 µM, partner dose 1 µM)	213
NCC(=O)Nc1ccc(-n2nc(C(F)(F)F)cc2-c2ccc3c(ccc4ccccc43)c2)cc1 + O=C(Oc1ccc([N+](=O)[O-])cc1)N1CCC(C(O)(c2ccc3c(c2)OCO3)c2ccc3c(c2)OCO3)CC1 [JZL184] (first compound 1 µM, partner dose 1 µM)	110
O=C(O)C(=O)Nc1sc2c(c1C(=O)O)CCNC2 + C/C(O)=C(\C#N)C(=O)Nc1cc(Br)ccc1Br [LFM-A13] (first compound 1.66667 µM, partner dose 2 µM)	125

Pulled one by one from the list above (2):
Compound	cleaved PARP positive nuclei fraction [%]
C/C(O)=C(\C#N)C(=O)Nc1cc(Br)ccc1Br + c1cc(-c2cnn3cc(-c4ccc(OCCN5CCCCC5)cc4)cnc23)ccn1 [Dorsomorphin] (first compound 2 µM, partner dose 0.4 µM)	85.9
CCc1ccc(CCOc2ccc(CC3SC(=O)NC3=O)cc2)nc1 (configuration not stated) [pioglitazone] + Cc1cc(SCc2sc(-c3ccc(C(F)(F)F)c(F)c3)nc2C)ccc1OCC(=O)O [GW0742] (first compound 2 µM, partner dose 2 µM)	187

(listing goes on)

Compound	cleaved PARP positive nuclei fraction [%]
COc1ccc2c(c1)CCC1C2CCC2(C)C(NCCCCCCN3C(=O)C=CC3=O)CCC12 (configuration not stated) + Cc1cc(SCc2sc(-c3ccc(C(F)(F)F)c(F)c3)nc2C)ccc1OCC(=O)O [GW0742] (first compound 0.4 µM, partner dose 2 µM)	184
Cc1ccc(NC(=O)c2cccc(N(C)C)c2)cc1NC(=O)c1ccc(O)cc1 + C/C(O)=C(\C#N)C(=O)Nc1cc(Br)ccc1Br [LFM-A13] (first compound 2 µM, partner dose 2 µM)	157
O=C(Oc1ccc([N+](=O)[O-])cc1)N1CCC(C(O)(c2ccc3c(c2)OCO3)c2ccc3c(c2)OCO3)CC1 + O=c1cc(-c2cccc3c2Sc2ccccc2S3)oc(N2CCOCC2)c1 [KU55933] (first compound 1 µM, partner dose 1 µM)	49.5
C/C(O)=C(\C#N)C(=O)Nc1cc(Br)ccc1Br + O=c1cc(-c2cccc3c2Sc2ccccc2S3)oc(N2CCOCC2)c1 [KU55933] (first compound 2 µM, partner dose 1 µM)	112
C=CCn1c(=O)c2cnc(Nc3ccc(N4CCN(C)CC4)cc3)nc2n1-c1cccc(C(C)(C)O)n1 + Cc1cc(SCc2sc(-c3ccc(C(F)(F)F)c(F)c3)nc2C)ccc1OCC(=O)O [GW0742] (first compound 0.02 µM, partner dose 2 µM)	65.6
C[C@]1(c2nc3c(C(N)=O)cccc3[nH]2)CCCN1 [Veliparib] + Cc1cc(SCc2sc(-c3ccc(C(F)(F)F)c(F)c3)nc2C)ccc1OCC(=O)O [GW0742] (first compound 1.4 µM, partner dose 2 µM)	104
CCN(CC)CCCCNc1ncc2cc(-c3cc(OC)cc(OC)c3)c(NC(=O)NC(C)(C)C)nc2n1 + Cc1cc(SCc2sc(-c3ccc(C(F)(F)F)c(F)c3)nc2C)ccc1OCC(=O)O [GW0742] (first compound 0.1 µM, partner dose 2 µM)	91.8
O=C(O)c1ccc(-c2c[nH]c3ncc(-c4ccccc4)cc23)cc1C1CCCC1 + Cc1cc(SCc2sc(-c3ccc(C(F)(F)F)c(F)c3)nc2C)ccc1OCC(=O)O [GW0742] (first compound 0.16 µM, partner dose 2 µM)	189
NC(=O)Nc1cc(-c2cccc(F)c2)sc1C(=O)N[C@H]1CCCNC1 + O=C(Oc1ccc([N+](=O)[O-])cc1)N1CCC(C(O)(c2ccc3c(c2)OCO3)c2ccc3c(c2)OCO3)CC1 [JZL184] (first compound 0.02 µM, partner dose 1 µM)	57.8
O=C(O)C(=O)Nc1sc2c(c1C(=O)O)CCNC2 + O=C(Oc1ccc([N+](=O)[O-])cc1)N1CCC(C(O)(c2ccc3c(c2)OCO3)c2ccc3c(c2)OCO3)CC1 [JZL184] (first compound 1.66667 µM, partner dose 1 µM)	65.6
COc1ccc(-c2ccc3c(N4CCOCC4)nc(N4C[C@@H](C)O[C@@H](C)C4)nc3n2)cc1CO + Cc1cc(SCc2sc(-c3ccc(C(F)(F)F)c(F)c3)nc2C)ccc1OCC(=O)O [GW0742] (first compound 0.02 µM, partner dose 2 µM)	12
O=C(CCCCCCC(=O)Nc1ccccc1)NO [vorinostat] + Cc1cc(SCc2sc(-c3ccc(C(F)(F)F)c(F)c3)nc2C)ccc1OCC(=O)O [GW0742] (first compound 0.08 µM, partner dose 2 µM)	76.3
COC(=O)c1sccc1S(=O)(=O)Nc1ccc(Nc2ccccc2)cc1OC + O=C(Oc1ccc([N+](=O)[O-])cc1)N1CCC(C(O)(c2ccc3c(c2)OCO3)c2ccc3c(c2)OCO3)CC1 [JZL184] (first compound 1 µM, partner dose 1 µM)	106
Nc1cccc2c1CN(C1CCC(=O)NC1=O)C2=O (configuration not stated) [lenalidomide] + O=C(Oc1ccc([N+](=O)[O-])cc1)N1CCC(C(O)(c2ccc3c(c2)OCO3)c2ccc3c(c2)OCO3)CC1 [JZL184] (first compound 1 µM, partner dose 1 µM)	150
Cn1cncc1[C@@](N)(c1ccc(Cl)cc1)c1ccc2c(c1)c(-c1cccc(Cl)c1)cc(=O)n2C [tipifarnib] + C/C(O)=C(\C#N)C(=O)Nc1cc(Br)ccc1Br [LFM-A13] (first compound 0.01 µM, partner dose 2 µM)	87.5
COc1cc(Nc2ncc(F)c(Nc3ccc4c(n3)NC(=O)C(C)(C)O4)n2)cc(OC)c1OC [Tamatinib] + C/C(O)=C(\C#N)C(=O)Nc1cc(Br)ccc1Br [LFM-A13] (first compound 0.4 µM, partner dose 2 µM)	24.3
